{"source": "patent US20060073133A1", "about": "(published 2006)", "binders": {"B1": {"name": "monoclonal antibody 12B1 (antibody, IgG2a, V domains shown)", "VH": "QIQLQQSGPELVKPGASVKVSCKASGYSFTDYNIYWVKQSHGKSLEWIGYIDPYNDDTGYNQKFKGKATLTVDKSSSTAFMHLNSLTSEDSAVYYCASEGIHWGQGTLVTVS", "VL": "DIVMTQSQKFMSTSVGDRVSVTCKASQNVGTNVAWFQQKPGQSPKALIYSASYRYNGVPDRFTGSGSGTDFTLTISNVQSEDLADYFCQQYNIYPYTFGGGTKLEIK", "notes": "also called mAb 12B1; SAF-3 mAb (clone 12B1)"}}, "molecular_target": "T1, SAF-3/Fc fusion (human) (UniProt Q9Y286)", "T1 sequence": "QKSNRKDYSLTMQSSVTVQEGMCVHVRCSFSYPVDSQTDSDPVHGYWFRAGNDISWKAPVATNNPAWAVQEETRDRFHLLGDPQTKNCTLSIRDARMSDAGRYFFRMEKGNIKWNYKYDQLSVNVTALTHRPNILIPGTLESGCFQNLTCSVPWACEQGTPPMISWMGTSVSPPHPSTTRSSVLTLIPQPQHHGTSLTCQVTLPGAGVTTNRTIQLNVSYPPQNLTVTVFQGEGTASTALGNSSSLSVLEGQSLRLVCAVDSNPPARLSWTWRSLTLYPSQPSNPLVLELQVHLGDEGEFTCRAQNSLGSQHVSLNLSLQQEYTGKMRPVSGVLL", "experiment": "time-resolved fluorescence immunoassay, SAF-3/Fc coated at 0.5 ug/mL, Eu-labelled anti-mouse IgG; rescreened by immunoassay and BIAcore", "note": "These are yes or no findings as the source states them, for the method shown. Some binding calls cover weakened binding; strength is not graded here. Where a sequence is shown, tags or fusion partners need not be part of it."}
{"binder": "B1", "values": [{"measurement": "binding", "result": "binds"}]}
